Measurements from patent US20170209544A1, “A PEPTIDE THERAPY TO COUNTERACT INSULIN RESISTANCE AND TYPE 2 DIABETES” (The Regents of the University of California, priority 2014, published 2017).
For some assays here: Not every detail of the peptide structures is certain; ends, links or a residue may be inferred. For some assays here: At least one compound was matched to its structure with a doubt left. Where no end group is shown, it is not given here.

Experiments:
DIO mice [1] = conditions: cited from earlier work
3T3-L1 adipocytes = assay: Insulin-stimulated glucose uptake in adipocytes; format: cell-based; conditions: variant 100 nM present with PST
Description: Mutant PST peptides were synthesized and screened. The peptides were synthesized as various deletion peptides of PST. Native PST (SEQ ID NO. 2) inhibited insulin-stimulated glucose uptake and leptin production in adipocytes. The inventors tested various deletion mutant PST peptides whether one or more of them would compete and prevent native PST action in adipocytes.

WT-DIO mice [2] = assay: GTT, ITT and plasma measures in PSTv1-treated WT-DIO mice; format: in vivo
WT-NCD mice = assay: IP-ITT in WT-NCD mice; format: in vivo; conditions: chronic PSTv1 10 μg/g BW for 15 days
Description: (§1) For glucose tolerance tests (GTT), glucose (1 mg/g) was injected intraperitoneally (IP-GTT) (at time zero) or gavaged orally (O-GTT) after a 12-hours fast. Tail-vein glucose levels were measured at −30, 0, 15, 30, 60, 90, and 120 minutes. For insulin tolerance tests (ITT), insulin (0.4 mU/g) was injected intraperitoneally and blood glucose levels were measured at the indicated time points. Chronic PST (5 μg/g/day) and PSTv1 (10 μg/day) treatments were carried out for 15 days. For acute treatment, either peptides or saline were injected 30 minutes before glucose or insulin injection. Synergy Software Kaleidagraph Version 4.0 calculated the area under the curve (AUC) for each line curve.
Treatment with the PST variant PSTv1 improves, whereas PST worsens, glucose tolerance and insulin sensitivity in WT-DIO and WT-NCD mice. WT-DIO mice were treated with saline or PSTv1 (10 μg/g BW/day) for 15 days. Weight-matched DIO mice were fasted for 12 hrs and subjected to IP-GTT (2-way ANOVA: Treatment, p<0.0001; Time, p<0.0001; Interaction, p=0.17, n=6, as shown in FIG. 13A) and IP-ITT (2-way ANOVA: Treatment, p<0.0001; Time, p<0.0001; Interaction, p=0.62 n=9, as shown in FIG. 13C) and AUCs for glucose excursions were determined (as shown in FIGS. 13B and 13D). […]

KO-NCD mice = assay: GTT in NCD-fed Chga-KO mice (acute and chronic); format: in vivo
Description: as §1
To determine acute effects, NCD fed Chga-KO mice (KO-NCD) were fasted for 12 hrs, treated with saline, PST (5 μg/g BW), PSTv1 (10 μg/g BW) or PST+PSTv1 for 30 min (−30 min) before injecting glucose (0 min) for (FIG. 14A) IP-GTT (2-way ANOVA: Treatment (Sal vs PST), p<0.0001, Time, p<0.0001; Interaction, p<0.002; Treatment (PST vs PSTv1), p<0.0001; Time, p<0.0001; Interaction, p<0.005; n=7). The corresponding AUC is shown in (FIG. 14B).
To determine chronic effects, KO-NCD mice were treated with saline, PST (5 μg/g BW), PSTv1 (10 μg/g BW) or PST+PSTv1 for 15 days, fasted for 12 hrs after the last of injection and subjected to (FIG. 14C) GTT (2-way ANOVA: Treatment (Sal vs PST), Time, p<0.0001; Interaction, p<0.05; Treatment (PST vs PSTv1), p<0.0001; Time, p<0.0001; Interaction, p<0.01; n=7). The corresponding AUC is shown in (FIG. 14D). FIG. 14E reports liver glycogen at basal and during clamp in DIO mice (n=6). FIG. 14F reports chronic effects of PST (5 μg/g BW for 15 days) on expression of hepatic gluconeogenic genes (Pepck and G6pase) in DIO mice (n=6). FIG. 14G reports chronic effects of PST (5 μg/g BW for 15 days) on expression of hepatic lipid metabolic (Acc, Ppara, Cpt-1, Acox-1 and Srebp-1) genes in DIO mice (n=6). “$” Denotes comparison between saline and PST, “#” denotes comparison between PSTv1 and PST+PSTv1, and “*” denotes comparison between the indicated groups. […]

WT-DIO mice [3] = assay: Hyperinsulinemic-euglycemic clamp in WT-DIO mice; format: in vivo
obese Zucker rats = assay: Glucose homeostasis in obese Zucker rats; format: in vivo
db/db mice = assay: Glucose tolerance and insulin sensitivity in db/db mice; format: in vivo; conditions: obese and insulin resistant db/db mice
Chga-KO mice = assay: Glucose-stimulated insulin secretion during GTT in Chga-KO mice; format: in vivo
Description: As shown in FIGS. 4A-4D, to compare the effects of PSTv1 (the peptide with SEQ ID NO. 1) vs. PST on glucose-stimulated insulin secretion (GSIS), the inventors analyzed plasma insulin levels in Chga-KO mice during GTT experiments.

DIO mice [4] = assay: Plasma and liver NO and liver glycogen in DIO mice; format: in vivo
hepatocytes = assay: PST-induced NO production in cultured hepatocytes; format: cell-based; conditions: co-treatment with PSTv1
WT-DIO mice [5] = assay: Cytokine mRNA and protein in PSTv1-treated WT-DIO mice; format: in vivo
[6] = test system: AKT, GSK-3β, eNOS, JNK phosphorylation; assay: Immunoblot of insulin and inflammatory signaling in PSTv1-treated db/db and WT-DIO mice; format: in vivo
DIO liver [7] = assay: ER stress and UPR signaling in DIO liver; format: in vivo, mice
DIO liver [8] = assay: ER-mitochondria contacts and mitochondrial complex proteins in DIO liver; format: in vivo, mice

## CN(CCOc1ccc(CC2SC(=O)NC2=O)cc1)c1ccccn1 (centres unmarked) [rosiglitazone]
DIO mice [1]
  inflammation: decrease
  insulin sensitivity: increase
  obesity: without reducing obesity significantly

## KGEQEHSQQKEEEEEMAVVPQGLFRG-NH2 [PSTv1]
3T3-L1 adipocytes
  effect on inhibition of insulin-stimulated glucose uptake by PST: prevented the inhibition by PST effectively
WT-DIO mice [2]; 10 μg/g/day for 15 days
  fasting plasma glucose levels: lowered
  glucose tolerance (IP-GTT): improved
  insulin sensitivity (IP-ITT): improved
WT-DIO mice [2]; WT-DIO mice
  food intake or body weight: without changing food intake or body weight
WT-DIO mice [2]; WT-DIO mice treated with PSTv1
  insulin/C-peptide molar ratio: without a change
  plasma insulin and glucose concentrations: concomitant decrease
WT-NCD mice
  insulin sensitivity (IP-ITT): improved insulin sensitivity
KO-NCD mice; PSTv1 alone, acute and chronic
  effect of PSTv1 alone on glucose tolerance: had no effect
KO-NCD mice; chronic PST+PSTv1 for 15 days
  effects of chronic PST treatment: reversed the effects of chronic PST treatment
KO-NCD mice; concomitant acute injection of PSTv1 10 μg/g BW with PST 5 μg/g BW
  hyperglycemic effect of PST: attenuated
WT-DIO mice [3]; PSTv1-treated group
  % suppression of hepatic glucose production (HGP): significant improvement
  glucose infusion rate (GIR): significant improvement
  insulin stimulated glucose disposal rate (IS-GDR): significant improvement
  weight of liver and adipose tissues: without significant decrease
WT-DIO mice [3]; after PSTv1 treatment
  NEFA levels: Decreased
Obese Zucker rats; 10 μg/g/day for 15 days
  GTT and ITT: showed improvement
  fasting plasma glucose levels: lowered
Obese Zucker rats; genetically obese Zucker rats
  food intake or body weight: without changing food intake or body weight
  glucose tolerance: improvement in glucose tolerance
db/db mice
  glucose tolerance and insulin sensitivity: improves
Chga-KO mice; PSTv1 pretreatment
  decline in GSIS caused by PST: partially reverses
Chga-KO mice; during GTT
  glucose-stimulated insulin secretion (GSIS): without affecting GSIS
  plasma glucose concentration: lowers glucose concentrations
DIO mice [4]; DIO mice
  liver NO: decreased
  plasma NO: decreased
DIO mice [4]; WT-DIO mice
  liver glycogen: increases
hepatocytes
  PST-stimulated NO production: effectively blocked
WT-DIO mice [5]
  expression of IL-1β, IL-6 and MCP-1 genes in liver: suppresses
  expression of TNF-α, MCP-1 and IL-6 in adipose tissue: attenuates
  plasma MCP-1, IL-1β and G-CSF proteins: suppresses
[6]; DIO liver
  phosphorylation of GSK-3β: stimulates
[6]; PSTv1 alone, both models
  Akt phosphorylation: stimulates
[6]; WT-DIO mice
  phosphorylation of hepatic eNOS: suppressed
[6]; chronic PSTv1 14 days, insulin 3 min, liver (db/db and WT-DIO), muscle (WT-DIO)
  acute effect of insulin treatment on AKT phosphorylation: potentiated
[6]; mouse, in vivo
  pJNK signals in liver: suppression
DIO liver [7]; DIO liver
  HFD-induced phosphorylation of IRE1α: decreases
  PERK phosphorylation: suppressed
  elF-2α phosphorylation: suppressed
DIO liver [7]; DIO mice, liver
  ER lumen width: decreases
DIO liver [7]; mouse, in vivo
  ATF6 signaling: did not alter
DIO liver [8]
  distance between ER and mitochondria: increases the gap
  expression of MAM protein GRP75: decreases
  expression of mitochondrial complex II and III: attenuates
